Among the data in paper PMC11988948 are binding values, retold here.

Amino acid sequences for entries named in this document (tags omitted).
UniProt Q04207: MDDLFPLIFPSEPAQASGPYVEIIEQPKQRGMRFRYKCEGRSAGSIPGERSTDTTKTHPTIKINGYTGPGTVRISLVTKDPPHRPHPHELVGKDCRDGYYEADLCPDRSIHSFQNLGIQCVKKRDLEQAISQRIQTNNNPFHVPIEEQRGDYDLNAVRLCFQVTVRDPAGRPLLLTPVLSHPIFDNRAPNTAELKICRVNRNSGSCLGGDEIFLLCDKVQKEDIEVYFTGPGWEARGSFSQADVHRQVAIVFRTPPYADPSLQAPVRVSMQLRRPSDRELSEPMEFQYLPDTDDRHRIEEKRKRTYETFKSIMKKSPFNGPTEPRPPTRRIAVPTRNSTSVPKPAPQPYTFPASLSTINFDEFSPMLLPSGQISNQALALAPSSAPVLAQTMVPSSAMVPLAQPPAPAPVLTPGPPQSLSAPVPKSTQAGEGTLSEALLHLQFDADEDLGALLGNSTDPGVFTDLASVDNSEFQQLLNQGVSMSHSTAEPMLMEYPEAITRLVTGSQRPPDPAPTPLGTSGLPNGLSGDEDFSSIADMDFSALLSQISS

Experiment [1] deals with T1, vitamin D receptor (mouse (endogenous in mRTECs)) (UniProt P48281).
T1 sequence: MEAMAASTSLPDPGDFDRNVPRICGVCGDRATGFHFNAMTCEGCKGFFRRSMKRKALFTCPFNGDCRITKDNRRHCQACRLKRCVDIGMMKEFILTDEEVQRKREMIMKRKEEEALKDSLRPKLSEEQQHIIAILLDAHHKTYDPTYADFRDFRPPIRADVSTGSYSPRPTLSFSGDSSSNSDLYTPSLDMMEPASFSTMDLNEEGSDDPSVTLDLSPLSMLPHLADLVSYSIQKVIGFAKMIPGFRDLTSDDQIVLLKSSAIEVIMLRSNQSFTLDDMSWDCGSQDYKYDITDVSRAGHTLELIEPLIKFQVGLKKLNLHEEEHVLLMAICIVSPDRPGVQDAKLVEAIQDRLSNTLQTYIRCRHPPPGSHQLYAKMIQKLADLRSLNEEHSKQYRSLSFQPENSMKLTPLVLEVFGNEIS
Put plainly: co-IP; 5 ng VDR antibody added to 40 μg protein sample overnight at 4 °C, protein A/G magnetic beads 2 h at 37 °C, washed, eluted in SDS sample buffer, Western blot; mRTECs under H/R with or without DKS26 (Figure 4C); sample and conditions of Figure 7A not stated. A general note: In western blotting, separated proteins are transferred to a membrane and probed.

Experiment [2] addresses T1, vitamin D receptor (mouse (endogenous in mRTECs)). The description is as above. The source holds these as a separate data set.

Where two headings read alike, the source gives them in different places. These are yes or no findings as the source states them, for the method shown. In cells and extracts the contact can be indirect. Some binding calls cover weakened binding; strength is not graded here.

For the molecule “NF-κB P65 phosphorylated at serine 311 (from UniProt Q04207 1-549)”, in experiment [1], the binding entry is “binds”.

B1: inhibitor of nuclear factor kappa-B kinase subunit beta (protein, UniProt O88351 1-757)
chain: MSWSPSLPTQTCGAWEMKERLGTGGFGNVIRWHNQATGEQIAIKQCRQELSPKNRNRWCLEIQIMRRLNHPNVVAARDVPEGMQNLAPNDLPLLAMEYCQGGDLRRYLNQFENCCGLREGAVLTLLSDIASALRYLHENRIIHRDLKPENIVLQQGEKRLIHKIIDLGYAKELDQGSLCTSFVGTLQYLAPELLEQQKYTVTVDYWSFGTLAFECITGFRPFLPNWQPVQWHSKVRQKSEVDIVVSEDLNGAVKFSSSLPFPNNLNSVLAERLEKWLQLMLMWHPRQRGTDPQYGPNGCFRALDDILNLKLVHVLNMVTGTVHTYPVTEDESLQSLKTRIQENTGILETDQELLQKAGLVLLPDKPATQCISDSKTNEGLTLDMDLVFLLDNSKINYETQITPRPPPESVSCILQEPKRNLSFFQLRKVWGQVWHSIQTLKEDCNRLQQGQRAAMMSLLRNNSCLSKMKNAMASTAQQLKAKLDFFKTSIQIDLEKYKEQTEFGITSDKLLLAWREMEQAVEQCGRENDVKHLVERMMALQTDIVDLQRSPMGRKQGGTLDDLEEQARELYRKLREKPRDQRTEGDSQEMVRLLLQAIQSFEKKVRVIYTQLSKTVVCKQKALELLPKVEEVVSLMNEDERTVVRLQEKRQKELWNLLKIACSKVRGPVSGSPDSMNVSRLSHPGQLMSQPSSACDSLPESDKKSEELVAEAHALCSRLESALQDTVKEQDRSFTTLDWSWLQMEDEERCSLEQACD
Turning to B1, in experiment [2], the binding result is reported as “binds”.
